Measurements reported in PubChem BioAssay AID1259254 (NCATS, 2017)

Aim: 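Gene knock-downs that lead to re-replication, shown by excess G2 DNA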 (primary screen)
System: human HCT116 colorectal cancer cells
Reagents: single siRNA against human genes
Duration: 3 days
Measurement: 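Nuclei stained with Hoechst and imaged; cell-cycle phase assigned by DNA content; G2 share scaled per plate, non-targeting siRNA 0%, GMNN siRNA 100%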
Reading the numbers: G2 robust z-score: higher = more G2 cells, more excess DNA replication
Hit rule: 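Active siRNAs have a G2 robust z of 5 or more median absolute deviations over the median, which in these data means about 38% or higher of GMNN control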
Here is one part, drawn at random, of about 59,000 reagents tested. About 1,550 of all reagents (2.6%) were called active. 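G2 share is only a proxy for re-replication; each gene was hit by three separate siRNAs, and active genes were retested.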 Entries without a mark were called inactive. Reagents against one gene are numbered here. Not all columns of the deposit are shown. Not given: the amount of reagent.

G2 robust z-score, by gene symbol and reagent
ESRRA (GeneID 2101): #1 4.27; #2 0.0626; #3 0.82
CTSB (GeneID 1508): #1 -0.407; #2 -0.815; #3 -0.708
LIPF (GeneID 8513): #1 -0.596; #2 0.454; #3 0.962
TNFSF12 (GeneID 8742): #1 -1.32; #2 -0.121; #3 2.42
ARHGAP5 (GeneID 394): #1 1.17; #2 -0.751; #3 -1.33
CALCB (GeneID 797): #1 -0.676; #2 3.35; #3 -1.12
ALDH5A1 (GeneID 7915): #1 -0.12; #2 -0.0928; #3 -0.287
EIF4E3 (GeneID 317649): #1 0.317; #2 -0.748; #3 0.141
SYNC (GeneID 81493): #1 0.791; #2 2.95; #3 0.507
ENY2 (GeneID 56943): #1 -0.329; #2 -0.46; #3 -0.159
LRRC37A17P (GeneID 644397): #1 -0.034; #2 0.317; #3 0.186; #4 -0.296; #5 -0.532; #6 1.34
IP6K3 (GeneID 117283): #1 -0.00706; #2 5.46 (active); #3 0.299
SERPINA10 (GeneID 51156): #1 -1.32; #2 -0.464; #3 1.66
DGUOK (GeneID 1716): #1 2.92; #2 -0.635; #3 0.12
VPS35 (GeneID 55737): #1 2.59; #2 0.757; #3 -0.806
TPGS2 (GeneID 25941): #1 0.0952; #2 -0.387; #3 2.35
PIGO (GeneID 84720): #1 -0.218; #2 0.492; #3 -1.05
RTN4R (GeneID 65078): #1 1.46; #2 0.0307; #3 -1.3
FAM184B (GeneID 27146): #1 -1.12; #2 1.1; #3 0.26
CAV3 (GeneID 859): #1 0.522; #2 0.377; #3 -0.291
MEST (GeneID 4232): #1 -0.0473; #2 -0.245; #3 -0.849
ISCA1 (GeneID 81689): #1 -0.0491; #2 -0.814; #3 0.031
